Results published in article PMC7483473.
Results are given in words; binding and its absence hold for the method and conditions named. Binding seen in cells or lysates may run through a third protein. Some entries that bind do so weakly or less than the wild type.

The chains behind the UniProt entries cited, without tags or fusion partners. Residues count along the entry.
UniProt P41594, residues 21-1212: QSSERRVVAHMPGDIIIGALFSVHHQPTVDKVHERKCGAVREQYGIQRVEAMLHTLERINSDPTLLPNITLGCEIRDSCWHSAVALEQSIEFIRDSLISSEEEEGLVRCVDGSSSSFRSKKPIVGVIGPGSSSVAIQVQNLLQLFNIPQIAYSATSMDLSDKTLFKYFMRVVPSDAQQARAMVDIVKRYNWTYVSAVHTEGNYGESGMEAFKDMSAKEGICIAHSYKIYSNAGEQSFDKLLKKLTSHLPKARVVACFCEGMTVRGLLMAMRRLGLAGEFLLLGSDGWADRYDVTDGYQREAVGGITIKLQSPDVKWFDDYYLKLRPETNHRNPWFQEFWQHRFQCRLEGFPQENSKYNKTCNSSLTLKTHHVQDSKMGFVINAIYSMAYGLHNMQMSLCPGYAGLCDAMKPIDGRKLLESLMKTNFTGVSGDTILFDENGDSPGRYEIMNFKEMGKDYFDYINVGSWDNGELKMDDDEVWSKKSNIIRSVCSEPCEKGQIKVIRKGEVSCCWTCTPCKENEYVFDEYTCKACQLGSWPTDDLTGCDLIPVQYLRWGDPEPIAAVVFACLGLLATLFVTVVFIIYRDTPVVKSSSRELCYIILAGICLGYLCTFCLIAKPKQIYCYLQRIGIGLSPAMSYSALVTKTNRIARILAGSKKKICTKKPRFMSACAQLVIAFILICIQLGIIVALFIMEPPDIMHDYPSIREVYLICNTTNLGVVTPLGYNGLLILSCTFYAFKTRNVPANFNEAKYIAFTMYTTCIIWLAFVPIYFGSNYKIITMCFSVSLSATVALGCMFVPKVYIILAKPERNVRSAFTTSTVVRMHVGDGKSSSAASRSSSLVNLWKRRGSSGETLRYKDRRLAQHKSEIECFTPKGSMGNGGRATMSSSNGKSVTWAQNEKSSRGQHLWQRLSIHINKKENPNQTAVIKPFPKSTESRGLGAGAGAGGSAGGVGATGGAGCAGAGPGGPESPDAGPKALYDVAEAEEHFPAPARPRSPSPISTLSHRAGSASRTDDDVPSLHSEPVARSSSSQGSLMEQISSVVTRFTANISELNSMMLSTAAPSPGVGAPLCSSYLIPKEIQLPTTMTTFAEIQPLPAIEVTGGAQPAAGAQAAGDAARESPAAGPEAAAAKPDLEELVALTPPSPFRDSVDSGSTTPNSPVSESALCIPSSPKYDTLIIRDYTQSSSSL

Target: mNeonGreen labeled metabotropic glutamate receptor 5 (UniProt P41594)
Experiment: single-molecule pull-down (SiMPull) with stepwise photobleaching; detergent isolation with n-dodecyl β-D-maltoside (three concentrations for mNG-ADRβ2; 1% DDM for the mGluRs), biotin-streptavidin pull-down on a slide

binding: binds
Substance: mNeonGreen labeled metabotropic glutamate receptor 5 (from UniProt P41594 21-1212)
